Data taken from article doi:10.1101/2020.03.27.011510 (bioRxiv, 2020).
Where two headings read alike, the source gives them in different places. These are yes or no findings as the source states them, for the method shown. Some results given as binding are weak or reduced against the parent protein; the word gives no strength.

Amino acid sequences for entries named in this document (tags omitted). A change or cut given only in a name is not applied to a line headed by its entry. Residues count along the entry.
UniProt P98170, 10-99: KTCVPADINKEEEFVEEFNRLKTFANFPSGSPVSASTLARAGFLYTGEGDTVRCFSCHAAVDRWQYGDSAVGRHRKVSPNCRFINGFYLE

Assays:
[1] = target: BIR1 C12A/E22C-GdI (UniProt P98170); test: DEER
[2] = target: BIR1 C12A/E22C-GdI (UniProt P98170); test: DEER; remark: listed apart in the source
[3] = target: BIR1 C12A/E22C-GdI (UniProt P98170); test: DEER; remark: listed apart in the source
[4] = target: BIR1 C12A/E22C-GdII (UniProt P98170); test: DEER
[5] = target: BIR1 C12A/E22C-GdII (UniProt P98170); test: DEER; remark: listed apart in the source
[6] = target: BIR1 C12A/E22C-GdII (UniProt P98170); test: DEER; remark: listed apart in the source
[7] = target: BIR1 C12A/K19C-GdI (UniProt P98170); test: DEER
[8] = target: BIR1 C12A/N28C-GdI (UniProt P98170); test: DEER
[9] = target: BIR1 C12A/N28C-GdI (UniProt P98170); test: DEER; remark: listed apart in the source
[10] = target: BIR1 C12A/N28C-GdII (UniProt P98170); test: DEER
[11] = target: BIR1 C12A/N28C-GdII (UniProt P98170); test: DEER; remark: listed apart in the source
[12] = target: BIR1 C12A/V24C-GdI (UniProt P98170); test: DEER
[13] = target: S87A BIR1 mutant, without spin label (UniProt P98170); test: SEC
[14] = target: WT BIR1 C12-GdII (spin-labelled at C12 with BrPSPy-DO3MA-Gd3+) (UniProt P98170); test: DEER
[15] = target: WT BIR1 C12-GdII (spin-labelled at C12 with BrPSPy-DO3MA-Gd3+) (UniProt P98170); test: DEER; remark: listed apart in the source

Substance: BIR1 C12A/E22C-GdI (from UniProt P98170 10-99) (domain or fragment)
- binding [1]: binds
- binding [2]: binds
- binding [3]: binds

Substance: BIR1 C12A/E22C-GdII (from UniProt P98170 10-99) (domain or fragment)
- binding [4]: binds
- binding [5]: binds
- binding [6]: binds

Substance: BIR1 C12A/K19C-GdI (from UniProt P98170 10-99) (domain or fragment)
- binding [7]: binds

Substance: BIR1 C12A/N28C-GdI (from UniProt P98170 10-99) (domain or fragment)
- binding [8]: binds
- binding [9]: binds

Substance: BIR1 C12A/N28C-GdII (from UniProt P98170 10-99) (domain or fragment)
- binding [10]: binds
- binding [11]: binds

Substance: BIR1 C12A/V24C-GdI (from UniProt P98170 10-99) (domain or fragment)
- binding [12]: binds

Substance: S87A BIR1 mutant, without spin label (from UniProt P98170 10-99) (domain or fragment)
- binding [13]: binds

Substance: WT BIR1 C12-GdII (spin-labelled at C12 with BrPSPy-DO3MA-Gd3+) (from UniProt P98170 10-99) (domain or fragment)
- binding [14]: binds
- binding [15]: binds
